{"source": "paper PMC10267362", "about": "(Frontiers in Medicine, 2023)", "note": "End groups of sequences in plain letters are not given here.", "data": [{"assay": "general procedure: Fmoc solid-phase peptide synthesis; rink amide resin", "conditions": "whole synthesis, analytical RP-HPLC with UV detection at 220 nm", "units": {"final HPLC purity": "%"}, "values": [{"sequence": "TFFYGGSRGKRNNFKTEEYC", "final HPLC purity": ">94"}, {"sequence": "MASMTGGQQMG", "final HPLC purity": ">95"}, {"sequence": "RKKKRRQRRR", "final HPLC purity": 95.1}]}]}
